Paper PMC10810035
No constants are given. Whether binding was seen depends on the method and setting. In cells and extracts the contact can be indirect. These calls come from enrichment with a bait or labelling near it, and not all partners need be listed. Sequences can lack the tags named with a protein.

By UniProt entry, the sequences of proteins in these tests, tags left out.
UniProt P46379: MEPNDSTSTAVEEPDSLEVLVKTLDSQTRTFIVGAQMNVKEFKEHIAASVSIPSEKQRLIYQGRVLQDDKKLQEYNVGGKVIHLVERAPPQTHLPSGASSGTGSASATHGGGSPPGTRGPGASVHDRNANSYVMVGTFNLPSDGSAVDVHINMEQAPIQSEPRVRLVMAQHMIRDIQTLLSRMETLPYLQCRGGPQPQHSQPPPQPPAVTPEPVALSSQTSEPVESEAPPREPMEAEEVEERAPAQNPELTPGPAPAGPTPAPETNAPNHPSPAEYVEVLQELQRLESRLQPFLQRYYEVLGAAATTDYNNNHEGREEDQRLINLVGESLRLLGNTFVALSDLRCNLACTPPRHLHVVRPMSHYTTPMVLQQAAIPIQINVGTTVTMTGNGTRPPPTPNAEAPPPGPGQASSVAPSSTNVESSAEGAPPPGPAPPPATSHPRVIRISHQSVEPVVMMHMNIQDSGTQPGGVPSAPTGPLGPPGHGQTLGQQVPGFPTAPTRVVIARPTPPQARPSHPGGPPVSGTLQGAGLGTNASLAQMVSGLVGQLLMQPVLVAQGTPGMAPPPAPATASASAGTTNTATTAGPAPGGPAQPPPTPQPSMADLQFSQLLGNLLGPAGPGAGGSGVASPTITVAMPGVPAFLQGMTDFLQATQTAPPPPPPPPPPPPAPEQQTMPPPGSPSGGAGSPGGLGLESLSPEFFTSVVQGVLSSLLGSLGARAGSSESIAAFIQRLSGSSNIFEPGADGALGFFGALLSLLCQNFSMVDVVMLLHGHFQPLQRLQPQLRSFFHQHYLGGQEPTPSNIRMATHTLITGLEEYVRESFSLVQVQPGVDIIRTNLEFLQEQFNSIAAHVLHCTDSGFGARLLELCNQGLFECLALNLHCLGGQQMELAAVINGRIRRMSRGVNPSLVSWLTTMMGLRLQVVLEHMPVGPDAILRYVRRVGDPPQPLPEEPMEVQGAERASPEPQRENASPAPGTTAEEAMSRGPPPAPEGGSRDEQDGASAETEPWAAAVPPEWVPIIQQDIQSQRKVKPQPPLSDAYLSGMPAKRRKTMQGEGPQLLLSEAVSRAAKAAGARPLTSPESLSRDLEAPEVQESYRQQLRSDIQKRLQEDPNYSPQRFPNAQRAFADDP

Molecular target: T1, Flag-DERL2 (derlin 2) (human (cDNA amplified from QBC939 cells)) (UniProt Q9GZP9)
T1 sequence: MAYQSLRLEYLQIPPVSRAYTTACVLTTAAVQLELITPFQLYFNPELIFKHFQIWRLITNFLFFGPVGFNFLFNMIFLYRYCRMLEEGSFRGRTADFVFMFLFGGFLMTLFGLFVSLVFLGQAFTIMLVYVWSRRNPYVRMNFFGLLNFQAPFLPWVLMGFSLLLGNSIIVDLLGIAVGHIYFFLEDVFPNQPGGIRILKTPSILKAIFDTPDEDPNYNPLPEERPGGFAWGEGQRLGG
Experiment: affinity purification with mass spectrometry; 293T cells transfected with DERL2-Flag or empty vectors; DERL2-Flag complex captured by anti-Flag antibodies; mass spectrometry

Q: How did the binding turn out when “BAG6 (BAG cochaperone 6), endogenous (from UniProt P46379 1-1132)” was run?
A: binds
